Here are results for five substances from paper PMC8547449.

Sequences of proteins named here, by UniProt entry; tags and fusion partners are left off. A change or cut given only in a name is not applied to a line headed by its entry. Residues count along the entry.
UniProt W0T1Y4, residues 42-358: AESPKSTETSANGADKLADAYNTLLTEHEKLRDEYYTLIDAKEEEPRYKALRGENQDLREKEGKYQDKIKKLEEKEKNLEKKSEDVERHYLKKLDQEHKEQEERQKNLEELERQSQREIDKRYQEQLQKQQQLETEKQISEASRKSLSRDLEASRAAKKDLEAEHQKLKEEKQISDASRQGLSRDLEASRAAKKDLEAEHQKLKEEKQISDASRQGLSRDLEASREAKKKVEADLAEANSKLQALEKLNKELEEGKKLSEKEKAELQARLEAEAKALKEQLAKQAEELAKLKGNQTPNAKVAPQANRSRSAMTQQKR
UniProt P16947, residues 42-354: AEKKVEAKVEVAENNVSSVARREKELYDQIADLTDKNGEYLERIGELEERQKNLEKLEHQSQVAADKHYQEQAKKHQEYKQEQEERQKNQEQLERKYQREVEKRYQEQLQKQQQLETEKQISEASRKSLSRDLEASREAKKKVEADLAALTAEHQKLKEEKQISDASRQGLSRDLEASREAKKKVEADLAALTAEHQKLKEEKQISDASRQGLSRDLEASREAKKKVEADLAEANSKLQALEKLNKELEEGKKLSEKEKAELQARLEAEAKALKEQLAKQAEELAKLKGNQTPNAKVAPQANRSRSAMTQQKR
UniProt P01833: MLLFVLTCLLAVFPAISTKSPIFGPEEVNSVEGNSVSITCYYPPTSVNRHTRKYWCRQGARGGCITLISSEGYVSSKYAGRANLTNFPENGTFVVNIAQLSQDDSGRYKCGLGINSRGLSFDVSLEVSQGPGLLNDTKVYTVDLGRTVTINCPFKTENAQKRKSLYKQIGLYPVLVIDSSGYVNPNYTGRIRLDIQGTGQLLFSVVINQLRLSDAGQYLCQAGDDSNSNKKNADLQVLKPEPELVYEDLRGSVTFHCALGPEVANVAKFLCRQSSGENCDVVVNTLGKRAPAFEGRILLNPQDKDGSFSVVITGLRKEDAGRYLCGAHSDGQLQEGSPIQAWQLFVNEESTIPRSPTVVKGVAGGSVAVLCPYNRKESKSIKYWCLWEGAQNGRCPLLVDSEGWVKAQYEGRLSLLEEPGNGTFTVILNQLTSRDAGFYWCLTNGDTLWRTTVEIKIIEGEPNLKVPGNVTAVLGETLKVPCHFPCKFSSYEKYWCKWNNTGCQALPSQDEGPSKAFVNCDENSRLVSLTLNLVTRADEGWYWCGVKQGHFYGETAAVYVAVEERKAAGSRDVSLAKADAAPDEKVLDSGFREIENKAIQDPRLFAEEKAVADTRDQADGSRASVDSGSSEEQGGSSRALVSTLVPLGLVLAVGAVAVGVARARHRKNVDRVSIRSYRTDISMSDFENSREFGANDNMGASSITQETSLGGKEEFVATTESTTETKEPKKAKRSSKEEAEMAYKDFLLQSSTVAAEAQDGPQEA
UniProt P01009, residues 25-418: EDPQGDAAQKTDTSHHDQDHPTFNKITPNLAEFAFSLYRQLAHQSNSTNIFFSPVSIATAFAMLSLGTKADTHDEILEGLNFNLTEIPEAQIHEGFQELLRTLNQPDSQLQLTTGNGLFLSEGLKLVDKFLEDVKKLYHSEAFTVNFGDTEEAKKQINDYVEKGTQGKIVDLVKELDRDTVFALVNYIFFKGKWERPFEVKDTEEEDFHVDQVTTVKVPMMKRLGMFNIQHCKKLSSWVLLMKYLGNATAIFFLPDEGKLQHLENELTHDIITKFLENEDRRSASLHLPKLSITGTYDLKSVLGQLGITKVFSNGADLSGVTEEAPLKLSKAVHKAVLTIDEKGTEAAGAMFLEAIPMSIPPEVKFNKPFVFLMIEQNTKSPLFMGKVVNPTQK
UniProt P02768, residues 25-609: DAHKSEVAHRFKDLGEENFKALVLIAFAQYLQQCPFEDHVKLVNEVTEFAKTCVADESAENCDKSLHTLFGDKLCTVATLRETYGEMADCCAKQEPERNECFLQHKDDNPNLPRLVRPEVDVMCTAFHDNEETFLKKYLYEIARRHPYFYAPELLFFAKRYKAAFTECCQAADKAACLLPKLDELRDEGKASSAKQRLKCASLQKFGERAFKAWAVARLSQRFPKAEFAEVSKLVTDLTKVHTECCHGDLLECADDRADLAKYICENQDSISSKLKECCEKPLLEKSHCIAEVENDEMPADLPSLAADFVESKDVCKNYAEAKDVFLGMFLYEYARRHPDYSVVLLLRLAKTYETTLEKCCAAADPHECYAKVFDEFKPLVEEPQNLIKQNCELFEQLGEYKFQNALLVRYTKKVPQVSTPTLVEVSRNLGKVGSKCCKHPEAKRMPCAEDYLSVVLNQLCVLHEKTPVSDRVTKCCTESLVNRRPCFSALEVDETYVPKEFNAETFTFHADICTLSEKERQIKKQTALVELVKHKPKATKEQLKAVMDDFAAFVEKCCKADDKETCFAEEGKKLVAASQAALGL
UniProt P02751, residues 32-2477: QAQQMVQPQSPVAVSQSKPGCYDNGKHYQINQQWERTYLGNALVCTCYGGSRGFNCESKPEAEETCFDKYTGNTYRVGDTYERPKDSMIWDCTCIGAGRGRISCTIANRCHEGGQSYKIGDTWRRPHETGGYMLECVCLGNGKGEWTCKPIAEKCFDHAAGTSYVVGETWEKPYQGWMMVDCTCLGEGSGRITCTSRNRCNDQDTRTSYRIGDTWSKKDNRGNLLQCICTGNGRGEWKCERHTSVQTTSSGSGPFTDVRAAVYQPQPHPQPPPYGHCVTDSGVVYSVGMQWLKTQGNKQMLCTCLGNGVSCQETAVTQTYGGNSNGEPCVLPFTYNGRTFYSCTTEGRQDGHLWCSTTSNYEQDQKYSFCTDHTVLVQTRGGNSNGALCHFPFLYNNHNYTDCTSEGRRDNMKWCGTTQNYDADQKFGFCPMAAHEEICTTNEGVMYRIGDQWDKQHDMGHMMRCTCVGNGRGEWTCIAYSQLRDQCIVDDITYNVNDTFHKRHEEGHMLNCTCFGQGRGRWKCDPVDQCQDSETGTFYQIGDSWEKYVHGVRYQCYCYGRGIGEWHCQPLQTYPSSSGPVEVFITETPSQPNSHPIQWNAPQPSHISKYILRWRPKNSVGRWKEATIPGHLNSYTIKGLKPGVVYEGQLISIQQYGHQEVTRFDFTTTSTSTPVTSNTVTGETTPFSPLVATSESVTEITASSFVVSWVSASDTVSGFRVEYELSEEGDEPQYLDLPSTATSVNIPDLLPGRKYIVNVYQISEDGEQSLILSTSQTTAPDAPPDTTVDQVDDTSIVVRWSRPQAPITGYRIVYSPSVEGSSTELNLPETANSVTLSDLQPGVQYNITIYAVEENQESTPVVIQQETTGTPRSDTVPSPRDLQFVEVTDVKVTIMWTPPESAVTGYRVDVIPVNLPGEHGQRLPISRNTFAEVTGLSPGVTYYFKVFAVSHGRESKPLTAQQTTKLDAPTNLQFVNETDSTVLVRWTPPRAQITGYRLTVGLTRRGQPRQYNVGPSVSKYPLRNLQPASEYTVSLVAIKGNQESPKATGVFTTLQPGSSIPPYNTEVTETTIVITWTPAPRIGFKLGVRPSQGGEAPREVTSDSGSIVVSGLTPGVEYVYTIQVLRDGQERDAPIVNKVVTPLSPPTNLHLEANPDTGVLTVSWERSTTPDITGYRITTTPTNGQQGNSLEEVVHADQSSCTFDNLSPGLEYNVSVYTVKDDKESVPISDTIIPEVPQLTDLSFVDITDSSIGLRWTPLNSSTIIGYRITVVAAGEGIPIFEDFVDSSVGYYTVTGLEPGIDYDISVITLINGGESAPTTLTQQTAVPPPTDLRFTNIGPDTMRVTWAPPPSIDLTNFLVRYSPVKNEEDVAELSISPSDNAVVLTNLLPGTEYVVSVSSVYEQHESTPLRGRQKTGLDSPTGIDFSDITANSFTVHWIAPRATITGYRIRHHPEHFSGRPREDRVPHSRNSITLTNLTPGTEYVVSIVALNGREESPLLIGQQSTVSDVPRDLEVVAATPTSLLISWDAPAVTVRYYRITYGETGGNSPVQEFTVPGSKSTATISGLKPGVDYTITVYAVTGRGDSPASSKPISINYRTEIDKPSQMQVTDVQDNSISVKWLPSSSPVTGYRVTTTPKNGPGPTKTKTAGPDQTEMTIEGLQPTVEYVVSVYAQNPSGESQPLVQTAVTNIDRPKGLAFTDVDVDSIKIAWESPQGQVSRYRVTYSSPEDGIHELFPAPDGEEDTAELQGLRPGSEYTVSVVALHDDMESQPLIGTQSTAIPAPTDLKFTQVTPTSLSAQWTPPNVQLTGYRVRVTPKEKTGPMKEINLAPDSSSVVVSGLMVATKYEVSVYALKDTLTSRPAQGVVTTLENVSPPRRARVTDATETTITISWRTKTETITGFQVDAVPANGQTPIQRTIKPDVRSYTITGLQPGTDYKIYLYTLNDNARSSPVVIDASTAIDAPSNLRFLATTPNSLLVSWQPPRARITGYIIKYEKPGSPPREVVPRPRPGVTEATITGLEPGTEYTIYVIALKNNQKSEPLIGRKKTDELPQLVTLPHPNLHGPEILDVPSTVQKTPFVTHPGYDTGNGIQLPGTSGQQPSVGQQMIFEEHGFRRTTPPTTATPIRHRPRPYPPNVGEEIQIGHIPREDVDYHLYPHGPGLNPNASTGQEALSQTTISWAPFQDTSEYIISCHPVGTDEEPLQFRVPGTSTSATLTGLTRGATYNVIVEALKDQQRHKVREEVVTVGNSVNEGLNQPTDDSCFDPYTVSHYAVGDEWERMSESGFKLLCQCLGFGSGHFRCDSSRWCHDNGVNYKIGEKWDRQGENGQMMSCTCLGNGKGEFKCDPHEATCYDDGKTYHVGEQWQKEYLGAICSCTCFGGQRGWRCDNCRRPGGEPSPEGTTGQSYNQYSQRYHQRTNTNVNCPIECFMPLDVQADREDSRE
UniProt P01591, residues 23-159: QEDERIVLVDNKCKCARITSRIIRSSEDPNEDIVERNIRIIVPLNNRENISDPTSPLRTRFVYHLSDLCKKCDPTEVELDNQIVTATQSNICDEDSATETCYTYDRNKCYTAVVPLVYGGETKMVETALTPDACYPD

The target in assay [1] is M28 protein, recombinant, affinity-tagged (Streptococcus pyogenes) (UniProt W0T1Y4). Briefly: affinity purification with mass spectrometry; 20 μg affinity-tagged M1 or M28 on Strep-Tactin Sepharose beads, 200 μl pooled normal human saliva, 37°C 1 h, washed with ice-cold PBS, eluted with 5 mM biotin; M28 compared with M1; only the target purified.
The target is the same in assay [2]. Put plainly: affinity purification with mass spectrometry; affinity-tagged M28 on Strep-Tactin Sepharose beads, 100 μl of 100% saliva, 1% plasma in saliva, 10% plasma in saliva or 100% plasma, 37°C 1 h; relative intensities of pull-down against input; only the target purified.
The target is the same in assay [3]. Put plainly: affinity purification with mass spectrometry; 20 μg affinity-tagged M protein on Strep-Tactin Sepharose beads, 100 μl pooled normal human plasma, 37°C 1 h, washed with ice-cold PBS, eluted with 5 mM biotin; DIA-MS, hits filtered against sfGFP (log2 enrichment >1, adjusted P 0.05); only the target purified.
Assay [4] deals with M49 protein, recombinant, affinity-tagged (Streptococcus pyogenes) (UniProt P16947). The description is as above.
Assay [5] has as its target T1, M1 protein, recombinant, affinity-tagged (Streptococcus pyogenes) (UniProt Q99XV0).
T1 sequence: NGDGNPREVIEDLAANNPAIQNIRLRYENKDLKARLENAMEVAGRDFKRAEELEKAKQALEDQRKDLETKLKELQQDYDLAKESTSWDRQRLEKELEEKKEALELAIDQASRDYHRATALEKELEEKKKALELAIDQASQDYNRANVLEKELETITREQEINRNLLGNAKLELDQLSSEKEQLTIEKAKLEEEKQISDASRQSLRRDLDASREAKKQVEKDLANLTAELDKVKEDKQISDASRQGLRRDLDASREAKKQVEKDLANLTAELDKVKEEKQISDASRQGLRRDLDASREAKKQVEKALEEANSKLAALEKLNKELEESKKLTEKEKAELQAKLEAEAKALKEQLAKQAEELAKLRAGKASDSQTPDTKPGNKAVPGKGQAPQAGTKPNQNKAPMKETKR
Described as above.

No constants are given. Whether binding was seen depends on the method and setting. Binding seen in cells or lysates may run through a third protein. A yes stands for co-enrichment or nearness to the bait. Other partners may have been found. For part of these data: Sequences can lack the tags named with a protein.

For the substance “polymeric immunoglobulin receptor (from UniProt P01833)”, the binding result in assay [1] and in assay [2] was “binds” each time. As for “alpha-1-antitrypsin (from UniProt P01009 25-418)”, the binding entry in assay [3] is recorded as “binds”.

Consider albumin (from UniProt P02768 25-609), for which the binding entry in assay [3], in assay [4] and in assay [5] was “binds” each time. Take “fibronectin (from UniProt P02751 32-2477)”: the binding entry in assay [5] is given as “binds”. On to “immunoglobulin J chain (from UniProt P01591 23-159)”, for which the binding result in assay [1] and in assay [2] was “binds” in each case.
